Reference: patent US5462848A, “Color photographic materials including magenta coupler, inhibitor-releasing coupler and carbonamide compound, and methods” (Eastman Kodak Company, priority 1993, dated 1995)

Columns and labels:
[1] = Continued coupling: difference in Dmin between processes without stop bath (A, B) and with stop bath (C); settings: for Delta Dmin Process B-C: bleach pH 6.0; for Delta Dmin Process A-C: bleach pH 5.25
Procedure: (§1) Dispersions of couplers M1 and M2 were prepared in comparative coupler solvents S1 and S2 and in a carbonamide coupler solvent of this invention, C1. The weight ratio of coupler:solvent was 1:1. Dispersions were prepared by dissolving the coupler in a 1:3 mixture of coupler solvent plus cyclohexanone used as an auxiliary solvent. This mixture was then added to an aqueous solution of gelatin and ALKANOL XC surfactant. The two-phase mixture was passed through a colloid mill to disperse the coupler-containing oil phase in the aqueous phase in the form of small particles. The dispersion was then chilled, noodled and washed to remove the auxiliary cyclohexanone solvent. The resulting dispersions contained approximately 2% by weight of coupler and 6% by weight of gelatin.
(§2) The dispersions were coated on a transparent support at a coupler laydown of 0.54 mmole/m^2 together with a silver bromoiodide emulsion at a silver laydown of 1.08 g/m^2 in the following format:
(§3) The BVSME hardner is of the formula (CH2 =CHSO2 CH2)2 --O. Coatings were then exposed and subjected to variants of the KODAK FLEXICOLOR (C-41) process described below. The C-41 process is described in British Journal of Photography Annual, 1988, p-p. 196-198, discussed above. A first set of films was subjected to the standard C-41 process with no stop bath between the development and bleach steps (process A). A second set of films was also processed with out a stop bath but with the FLEXICOLOR bleach pH adjusted to 6.0 instead of the normal 5.25 (process B). This was intended to simulate behavior in a "seasoned" bleach with increased pH due to carry-over of base from the developer solution. A third set of films was processed with an acetic acid stop bath between the development and bleach steps to eliminate any continued coupling (process C).
(§4) The differences in Dmin values resulting from process A and process C or process B and process C are measures of the continued coupling at bleach pH values of 5.25 and 6.0, respectively. Photographic gamma values, which serve as a measure of coupler activity, were obtained from plots of status M green density versus exposure for the various film samples subjected to process A. These gamma values are also listed in Table II.
(§5) Dispersions of the pyrazolone magenta dye-forming coupler M2 were prepared in a mixture of S1 and aniline A1 (shown below) and in C5 by procedures similar to those described in Example 2. [drawing 11] An M2:S1:A1 weight ratio of 1:0.75:0.25 was used, and the M2:C5 weight ratio was 1:1. These dispersions were prepared without and with the DIR, D1, added at a M2:D1 weight ratio of 1:0.045. The dispersions were coated on a transparent sup-port at a coupler laydown of 0.54 mmole/m^2 together with a silver bromoiodide emulsion at a silver laydown of 1.08 g/m^2 in a format similar to that of Example 2. Hardened coatings were exposed and processed using the procedures described in Example 2. The differences in Dmin values obtained with process B (Bleach pH=6.0, no stop bath) versus process C (Bleach pH=5.25, with stop bath), which are measures of continued coupling, are listed in Table III.
(§6) Dispersions of pyrazolone magenta dye-forming couplers M3 and M4 were prepared in combination with coupler solvents S1 and C5, with and without DIR coupler D1. The ratio of the pyrazolone coupler to the coupler solvent was 1:1. These dispersions were coated on a transparent support at a coupler laydown of 0.54 mmole/m^2, together with a silver bromoiodide emulsion at a silver laydown of 1.08 g/m^2, as in Example 2. The differences in Dmin values obtained in process A (Bleach pH=5.25, no stop bath) and in process B (Bleach pH=6.0, no stop bath) and process C are listed in Table IV. Larger differences are indicative of higher undesirable continued coupling.
(§7) Dispersions of the pyrazolone magenta dye-forming couplers M3 and M8, together with S1 and D1 or with C1 and D1, were prepared. […]

[2] = Photographic gamma (coupler activity) from plots of status M green density versus exposure
Procedure: as §1, §2, §3, §4, §5, §6, §7

[3] = Table V, C1(1.0), DIR coupler D1 0.022 g/m^2 (0.040 with M3, 0.043 with M8)
[4] = Table V, S1(1.0), DIR coupler D1 0.022 g/m^2 (0.040 with M3, 0.043 with M8)
[5] = Table IV, C5(1.0), DIR coupler D1(0.04)
[6] = Table IV, C5(1.0), no DIR coupler
[7] = Table IV, S1(1.0), DIR coupler D1(0.04)
[8] = Table IV, S1(1.0), no DIR coupler
[9] = Table II, coupler solvent C1(1.0)
[10] = Table II, coupler solvent S1(1.0)
[11] = Table II, coupler solvent S2(1.0)

| Compound | Delta Dmin Process B-C [1, 3] | Delta Dmin Process B-C [1, 4] | Gamma [2, 3] | Gamma [2, 4] | Delta Dmin Process A-C [1, 5] | Delta Dmin Process B-C [1, 5] | Delta Dmin Process A-C [1, 6] | Delta Dmin Process B-C [1, 6] | Delta Dmin Process A-C [1, 7] | Delta Dmin Process B-C [1, 7] | Delta Dmin Process A-C [1, 8] | Delta Dmin Process B-C [1, 8] | Gamma [2, 5] | Gamma [2, 6] | Gamma [2, 7] | Gamma [2, 8] | other results |
| --- | --- | --- | --- | --- | --- | --- | --- | --- | --- | --- | --- | --- | --- | --- | --- | --- | --- |
| CCCCCCCCCCCCNS(=O)(=O)c1ccc(NC2=NN(c3c(Cl)cc(Cl)cc3Cl)C(=O)C2Sc2ccccc2NC(=O)CCCCCCCCCCC)c(Cl)c1 (centres unmarked) [M8] | 0.25 | 0.57 | 1.91 | 2.62 | – | – | – | – | – | – | – | – | – | – | – | – | – |
| CCCCCCCCCCCCNS(=O)(=O)c1ccc(NC2=NN(c3c(Cl)cc(Cl)cc3Cl)C(=O)C2Sc2ccccc2NC(=O)C(CC)Oc2ccc(C(C)(C)CC)cc2C(C)(C)CC)c(Cl)c1 (centres unmarked) [M4] | – | – | – | – | 0.10 | 0.22 | 0.08 | 0.20 | 0.23 | 0.52 | 0.23 | 0.48 | 1.88 | 3.06 | 1.67 | 3.31 | – |
| CCCCCCCCCCCCCC(=O)Nc1ccc(Cl)c(NC2=NN(c3c(Cl)cc(Cl)cc3Cl)C(=O)C2Sc2ccccc2NC(=O)C(CC)Oc2ccc(C(C)(C)CC)cc2C(C)(C)CC)c1 (centres unmarked) [M3] | 0.13 | 0.20 | 1.73 | 1.63 | 0.05 | 0.13 | 0.04 | 0.13 | 0.11 | 0.30 | 0.09 | 0.26 | 1.60 | 2.70 | 1.52 | 2.65 | – |
| CCCCCCCCCCCCNS(=O)(=O)c1ccc(NC2=NN(c3c(Cl)cc(Cl)cc3Cl)C(=O)C2Sc2cc(C(C)(C)CC(C)(C)C)ccc2OCCCC)c(Cl)c1 (centres unmarked) [M1] | – | – | – | – | – | – | – | – | – | – | – | – | – | – | – | – | Delta Dmin Process A-C [1, 9]: 0.01; Delta Dmin Process B-C [1, 9]: 0.03; Delta Dmin Process A-C [1, 10]: 0.04; Delta Dmin Process B-C [1, 10]: 0.19; Delta Dmin Process A-C [1, 11]: 0.10; Delta Dmin Process B-C [1, 11]: 0.33; Gamma ([2]; Table II, coupler solvent C1(1.0), process A): 1.84; Gamma ([2]; Table II, coupler solvent S1(1.0), process A): 2.10; Gamma ([2]; Table II, coupler solvent S2(1.0), process A): 2.41 |
